# Measurements as given in the supplement of paper PMC3334620.
# Over roughly 33,000 sequences, “E-score (-0.5 to 0.5)” has its median near -0.0059; the highest 2% begin near 0.26. This is one part of the list.
# Biological target: T1, Cin5 (UniProt P40917)
# T1 sequence: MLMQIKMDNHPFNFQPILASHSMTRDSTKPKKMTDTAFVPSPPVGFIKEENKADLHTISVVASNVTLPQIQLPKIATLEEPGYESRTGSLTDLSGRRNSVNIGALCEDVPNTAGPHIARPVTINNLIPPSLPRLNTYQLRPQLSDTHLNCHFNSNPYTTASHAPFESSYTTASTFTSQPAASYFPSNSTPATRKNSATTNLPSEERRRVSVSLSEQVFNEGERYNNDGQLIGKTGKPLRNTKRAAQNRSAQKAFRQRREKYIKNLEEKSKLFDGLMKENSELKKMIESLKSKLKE
# Experiment: PBM E-score (8-mer binding enrichment) (E-score (-0.5 to 0.5)); higher = stronger / more preferred TF binding
# Settings: protein concentration: 100 nM; construct: GST-full length
# Method: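 Universal 'all 10-mer' protein binding microarrays (Agilent AMADID 015681) probed with GST-tagged S. cerevisiae TFs (full-length or DBD) made by in vitro transcription/translation (PURExpress), about 100-200 nM. Bound TF was detected with fluorescent anti-GST. Each ungapped 8-mer (which stands for itself and its reverse complement) is scored by the PBM enrichment score (E-score), a modified Wilcoxon-Mann-Whitney statistic from -0.5 to +0.5, computed with the Universal PBM Analysis Suite. Scale: above 0.35 generally sequence-specific binding.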
row,Sequence,PBM E-score
1,AGTGCTAG,0.00775
2,ACTACCCC,-0.163
3,AATCTGTC,0.163
4,GTGAACAA,0.0903
5,ACGATACA,0.0211
6,AAAGACGC,-0.158
7,ACGCTTGC,-0.182
8,AAACAGGG,-0.0266
9,ACCCCGAA,0.115
10,AAGTCCTA,-0.218
11,AACTAGCT,0.0322
12,ATGCGTTC,0.0798
13,ATCGGAGA,0.00253
14,GAACGGCC,-0.155
15,TGTAAAAA,0.0501
16,AACGCTGA,-0.024
17,CAGGATGA,0.0756
18,CCTATCAA,0.112
19,CAGCGGCG,0.109
20,TACTTAAA,0.0272
21,CGCAGGAA,-0.0665
22,AGCAAAAG,-0.109
23,CCTAGAAA,-0.0202
24,AAGTGTAT,-0.00912
25,CTCGATAC,0.14

row,Sequence,PBM E-score
1,CGCCGCAA,0.0347
2,CGATTGCC,-0.0466
3,AGTGCACG,-0.0877
4,AGGTTTTA,-0.128
5,CAATATGC,0.112
6,ATCGCGTC,0.144
7,CGCTCCTA,-0.0856
8,ACTTGACT,-0.0326
9,ACCAGTTG,-0.0739
10,CTAGTCTA,-0.181
11,TCCCTGAA,-0.0382
12,AAATTCGT,0.256
13,AACTCTAT,-0.00975
14,ACTACTAA,0.177
15,CCCGGTAA,-0.128
16,AATCTTTA,-0.014
17,CGTGTAAA,-0.142
18,AAAAGCTC,0.0134
19,CCTTGGTC,-0.209
20,CTATAGAG,-0.0767
21,CGCCACGC,-0.274
22,AACCAGGA,-0.00079
23,GTGACCAC,-0.153
24,CCTAGACC,-0.0746
25,CTACCATA,0.0559

row,Sequence,PBM E-score
1,TAGCAAAA,0.019
2,CCCGTGGA,-0.111
3,GAGGAACA,-0.0449
4,CCCCCCAA,-0.456
5,CCGCCGTA,-0.047
6,GCGCCTAC,0.0746
7,CTGTGACC,0.0399
8,ACACGCAT,-0.0266
9,CACCAAAC,0.12
10,ATGCGCTG,-0.0401
11,ATTACTTG,0.202
12,GATCCTTA,-0.0238
13,CTGGATCC,0.019
14,AGAAGGCG,-0.121
15,GGGTGGGA,0.141
16,AATACGGT,-0.0563
17,GAACTCTC,-0.0674
18,GGAAGACA,-0.0332
19,AATACCAT,0.213
20,TAGTCATA,0.0307
21,CATGTAAA,-0.054
22,ACTATTAG,0.147
23,AAAAGGTA,0.00489
24,ACTCCGAA,-0.102
25,ATAAAGAA,0.142

row,Sequence,PBM E-score
1,CACCAAAA,0.152
2,AGGAGTGG,-0.145
3,CACTAGGC,0.0487
4,TCTGGTCA,0.0296
5,AACACTGC,0.196
6,ACTACGGA,0.0361
7,ATTCAAGC,0.127
8,ATCGGTAG,-0.0982
9,ACCAGGGC,-0.317
10,CAATCATA,0.201
11,TAAGGGCA,-0.0783
12,GATAAAAC,0.198
13,TACCCGGA,0.0801
14,CCGAGTCA,-0.0645
15,AGTCAGCC,0.161
16,CCAATGGC,-0.078
17,CATGAATC,0.0129
18,AATCGTAA,0.25
19,CCAGCATC,-0.117
20,CGCTTGTC,0.00216
21,GAGACCGC,-0.281
22,GTGCTGTA,-0.176
23,CTACCCCA,0.1
24,CTGATCTA,0.0193
25,ACCGCTCT,-0.072

row,Sequence,PBM E-score
1,AGCAGCGG,-0.174
2,ATGGCTCC,-0.0762
3,CCCGGTCG,-0.216
4,GGACGACC,-0.248
5,CAGCAACG,0.177
6,AGCTAGAA,-0.0472
7,AGCTGAGA,0.00079
8,AAACGTTC,0.0637
9,GAGGCTCC,-0.142
10,TAAAGTTA,0.179
11,CCGCGACC,-0.158
12,AAATTGCC,0.0903
13,AGCCACGC,-0.0802
14,ATAGTTTG,0.156
15,AAGTTCCA,-0.0879
16,CAAGGGCC,-0.343
17,GCGGTTTA,0.0493
18,ATGCGATA,-0.0194
19,ATGCGAGG,0.112
20,AATCCTAG,-6e-05
21,GCCTTGAA,-0.248
22,CCCGCAGA,0.0741
23,TCTACACA,0.02
24,AAAACCCC,-0.0498
25,TCCCCCCA,-0.382

row,Sequence,PBM E-score
1,CAAATGAA,-0.0217
2,TACCTTGA,0.0677
3,AATTATAA,0.223
4,ATACCGAT,-0.0406
5,TAAGAAGA,0.122
6,AAAGATGC,0.00202
7,ACCATACT,0.101
8,CGACTCCC,-0.223
9,CCACGCAG,-0.0201
10,GCGAACCA,0.026
11,ATGAAAGG,-0.0513
12,GAGGCGCA,-0.0676
13,GTATAAAC,0.26
14,AAGTGCGC,0.0534
15,GGAGCCTA,-0.101
16,CATAAGAA,0.249
17,CTAATAGC,-0.0367
18,AAATAGGC,0.0476
19,ATGTCAAG,0.0514
20,AGTATGGG,0.0513
21,GAAGACCC,-0.0954
22,TAAATGGA,0.111
23,CCCAAATA,0.0294
24,ACCGTTGC,-0.105
25,CGAGCTAC,-0.0208

# A portion of the results above, for reference:
row,Sequence,PBM E-score
17,CTAATAGC,-0.0367
18,AAATAGGC,0.0476

# Looked up above.
# Value of ACTCCGAA under PBM E-score: -0.102
# Value of CTAGTCTA under PBM E-score: -0.181
# Value of AATTATAA under PBM E-score: 0.223
# Value of AAAAGCTC under PBM E-score: 0.0134

# Later entries:

row,Sequence,PBM E-score
1,TACGGTCA,0.0745
2,AGGTTGCG,-0.173
3,ATGCGATC,-0.0177
4,GGAGGTCA,-0.244
5,AGGACCAT,-0.157
6,CATTAATC,0.118
7,AAACATAC,0.0238
8,AGTCCTAC,-0.0757
9,GATCATAA,0.241
10,TCGCGGCA,-0.106
11,CCTACGGC,-0.208
12,CACGACTG,-0.206
13,GGAAAGTA,0.164
14,AACTGTGA,0.0987
15,CCCGTCAG,-0.138
16,ACCCCTCA,0.0974
17,TCACGGGA,0.108
18,AGATACAT,0.171
19,TGACAAAA,0.165
20,TGCGCCCA,-0.11
21,ACCTTCGA,-0.116
22,GGACAACA,0.117
